Our source for the binding values is publication doi:10.1101/2020.12.10.419598.

Protein sequences, listed by entry. Tags and fused reporters are not part of them. Residues count along the entry.
UniProt Q9JLQ0: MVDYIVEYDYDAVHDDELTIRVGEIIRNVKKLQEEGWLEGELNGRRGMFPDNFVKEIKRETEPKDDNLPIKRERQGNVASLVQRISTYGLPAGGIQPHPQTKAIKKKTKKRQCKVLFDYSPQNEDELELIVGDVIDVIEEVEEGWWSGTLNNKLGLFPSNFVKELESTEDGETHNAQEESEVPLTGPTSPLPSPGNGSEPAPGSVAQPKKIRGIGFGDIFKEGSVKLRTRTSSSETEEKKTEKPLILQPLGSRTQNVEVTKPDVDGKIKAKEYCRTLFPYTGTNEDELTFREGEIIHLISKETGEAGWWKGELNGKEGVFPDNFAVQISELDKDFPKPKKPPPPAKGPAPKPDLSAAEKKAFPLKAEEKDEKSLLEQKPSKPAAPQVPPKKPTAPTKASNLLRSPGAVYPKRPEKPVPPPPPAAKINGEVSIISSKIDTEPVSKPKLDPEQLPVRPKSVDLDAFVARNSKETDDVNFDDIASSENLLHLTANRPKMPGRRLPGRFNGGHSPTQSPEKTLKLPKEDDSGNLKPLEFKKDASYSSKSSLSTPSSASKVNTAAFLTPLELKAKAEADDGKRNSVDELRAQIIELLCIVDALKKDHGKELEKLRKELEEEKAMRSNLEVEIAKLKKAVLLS
UniProt Q924X6, residues 29-996: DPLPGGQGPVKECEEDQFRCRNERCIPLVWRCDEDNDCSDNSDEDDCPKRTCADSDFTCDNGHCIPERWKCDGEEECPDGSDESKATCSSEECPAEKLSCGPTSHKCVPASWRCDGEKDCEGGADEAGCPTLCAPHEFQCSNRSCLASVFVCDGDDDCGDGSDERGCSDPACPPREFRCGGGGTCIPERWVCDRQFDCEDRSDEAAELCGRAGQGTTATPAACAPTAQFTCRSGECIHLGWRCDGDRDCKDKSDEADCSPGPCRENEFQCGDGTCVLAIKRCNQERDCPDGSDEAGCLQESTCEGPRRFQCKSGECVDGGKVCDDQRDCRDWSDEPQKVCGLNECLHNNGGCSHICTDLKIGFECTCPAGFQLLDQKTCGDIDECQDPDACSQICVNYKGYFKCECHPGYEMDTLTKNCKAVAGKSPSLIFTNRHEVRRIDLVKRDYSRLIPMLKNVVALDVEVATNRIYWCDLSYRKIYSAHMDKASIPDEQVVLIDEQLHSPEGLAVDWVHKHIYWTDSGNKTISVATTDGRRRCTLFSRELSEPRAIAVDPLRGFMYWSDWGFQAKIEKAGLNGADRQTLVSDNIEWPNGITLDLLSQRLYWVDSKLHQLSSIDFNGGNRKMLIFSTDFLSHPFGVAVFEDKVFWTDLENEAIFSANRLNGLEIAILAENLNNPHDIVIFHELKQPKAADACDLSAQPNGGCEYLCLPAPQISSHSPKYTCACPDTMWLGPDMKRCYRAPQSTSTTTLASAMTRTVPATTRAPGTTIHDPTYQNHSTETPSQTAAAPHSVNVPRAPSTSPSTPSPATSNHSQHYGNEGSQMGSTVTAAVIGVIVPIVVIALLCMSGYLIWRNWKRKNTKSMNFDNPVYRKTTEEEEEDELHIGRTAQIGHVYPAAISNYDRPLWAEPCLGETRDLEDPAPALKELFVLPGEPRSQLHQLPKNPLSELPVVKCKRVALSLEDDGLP
UniProt Q9Y5K6: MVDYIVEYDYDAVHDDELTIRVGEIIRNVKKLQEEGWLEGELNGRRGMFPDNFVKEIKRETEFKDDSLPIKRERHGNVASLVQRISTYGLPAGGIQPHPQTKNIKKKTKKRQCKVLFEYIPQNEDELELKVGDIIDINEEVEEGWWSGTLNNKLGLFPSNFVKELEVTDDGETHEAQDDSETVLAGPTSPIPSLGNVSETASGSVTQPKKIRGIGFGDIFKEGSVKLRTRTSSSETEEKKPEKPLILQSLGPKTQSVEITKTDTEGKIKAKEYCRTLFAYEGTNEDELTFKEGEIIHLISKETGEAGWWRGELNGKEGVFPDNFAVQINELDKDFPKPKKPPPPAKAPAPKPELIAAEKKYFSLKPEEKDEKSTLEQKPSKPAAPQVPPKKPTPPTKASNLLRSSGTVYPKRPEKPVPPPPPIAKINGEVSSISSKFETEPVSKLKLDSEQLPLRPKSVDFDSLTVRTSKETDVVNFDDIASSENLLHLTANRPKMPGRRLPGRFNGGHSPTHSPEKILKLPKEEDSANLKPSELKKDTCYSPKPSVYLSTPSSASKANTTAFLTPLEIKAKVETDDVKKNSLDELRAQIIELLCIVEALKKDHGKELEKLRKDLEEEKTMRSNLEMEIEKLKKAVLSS
UniProt Q14114, residues 33-963: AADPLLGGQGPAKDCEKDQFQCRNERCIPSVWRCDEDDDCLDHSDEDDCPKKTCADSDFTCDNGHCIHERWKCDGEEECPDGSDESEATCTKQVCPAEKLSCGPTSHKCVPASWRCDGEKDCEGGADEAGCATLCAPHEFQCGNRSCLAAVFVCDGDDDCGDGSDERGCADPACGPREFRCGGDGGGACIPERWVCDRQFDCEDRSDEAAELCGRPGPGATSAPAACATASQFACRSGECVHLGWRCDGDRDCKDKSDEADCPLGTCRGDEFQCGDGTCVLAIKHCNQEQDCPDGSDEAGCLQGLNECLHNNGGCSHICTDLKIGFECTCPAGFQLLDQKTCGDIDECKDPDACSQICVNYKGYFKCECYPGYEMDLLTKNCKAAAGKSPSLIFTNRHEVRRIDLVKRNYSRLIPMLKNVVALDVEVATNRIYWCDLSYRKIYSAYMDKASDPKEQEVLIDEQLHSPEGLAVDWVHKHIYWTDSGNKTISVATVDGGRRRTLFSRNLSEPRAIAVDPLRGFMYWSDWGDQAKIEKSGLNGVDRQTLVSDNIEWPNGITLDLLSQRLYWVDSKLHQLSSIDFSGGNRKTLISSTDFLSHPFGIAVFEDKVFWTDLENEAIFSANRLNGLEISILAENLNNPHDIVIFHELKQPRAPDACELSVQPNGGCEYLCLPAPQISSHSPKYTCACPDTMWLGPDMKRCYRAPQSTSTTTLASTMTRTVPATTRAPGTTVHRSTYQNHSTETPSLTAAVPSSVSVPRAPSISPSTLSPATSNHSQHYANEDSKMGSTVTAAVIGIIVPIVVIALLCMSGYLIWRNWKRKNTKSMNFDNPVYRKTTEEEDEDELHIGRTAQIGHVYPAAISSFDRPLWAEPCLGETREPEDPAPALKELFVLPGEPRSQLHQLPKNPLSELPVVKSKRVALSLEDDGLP

No constants are given. Whether binding was seen depends on the method and setting. In cells and extracts the contact can be indirect. Some results given as binding are weak or reduced against the parent protein; the word gives no strength.

Assay in all cases: co-IP
The target in assay [1] is CD2-associated protein (CD2AP), mouse (mouse (endogenous in adult mouse brain)) (UniProt Q9JLQ0).
Assay [2] deals with ApoE receptor 2 (ApoER2), mouse (mouse (endogenous in adult mouse brain)) (UniProt Q924X6).
For assay [3], the target named is CD2-associated protein (CD2AP), human (human (endogenous in hCMEC/D3)) (UniProt Q9Y5K6).

With “ApoE receptor 2 (ApoER2), mouse (from UniProt Q924X6 29-996)”, the binding result in assay [1] was “binds”.

On to “CD2-associated protein (CD2AP), mouse (from UniProt Q9JLQ0 1-637)”, for which the binding result in assay [2] is “binds”.

As for “ApoE receptor 2 (ApoER2), human (from UniProt Q14114 33-963)”, the binding entry in assay [3] is given as “binds”.

B1: Phosphatidylinositol Binding Clathrin Assembly Protein (PICALM), human (protein, UniProt Q13492 1-652)
chain: MSGQSLTDRITAAQHSVTGSAVSKTVCKATTHEIMGPKKKHLDYLIQCTNEMNVNIPQLADSLFERTTNSSWVVVFKSLITTHHLMVYGNERFIQYLASRNTLFNLSNFLDKSGLQGYDMSTFIRRYSRYLNEKAVSYRQVAFDFTKVKRGADGVMRTMNTEKLLKTVPIIQNQMDALLDFNVNSNELTNGVINAAFMLLFKDAIRLFAAYNEGIINLLEKYFDMKKNQCKEGLDIYKKFLTRMTRISEFLKVAEQVGIDRGDIPDLSQAPSSLLDALEQHLASLEGKKIKDSTAASRATTLSNAVSSLASTGLSLTKVDEREKQAALEEEQARLKALKEQRLKELAKKPHTSLTTAASPVSTSAGGIMTAPAIDIFSTPSSSNSTSKLPNDLLDLQQPTFHPSVHPMSTASQVASTWGDPFSATVDAVDDAIPSLNPFLTKSSGDVHLSISSDVSTFTTRTPTHEMFVGFTPSPVAQPHPSAGLNVDFESVFGNKSTNVIVDSGGFDELGGLLKPTVASQNQNLPVAKLPPSKLVSDDLDSSLANLVGNLGIGNGTTKNDVNWSQPGEKKLTGGSNWQPKVAPTTAWNAATMAPPVMAYPATTPTGMIGYGIPPQMGSVPVMTQPTLIYSQPVMRPPNPFGPVSGAQIQFM
On to B1, for which the binding result in assay [3] is recorded as “no binding”.
